Paper PMC9890698 (BMC Biology, 2023)
A number of entries come with more than one value. The list is limited to them. There may be further records. Values that stand side by side appear to be repeats (runs, samples, wells or individuals); one of them may be the mean.

Protein sequences, listed by entry. Tags and fused reporters are not part of them.
UniProt P47900, whole entry: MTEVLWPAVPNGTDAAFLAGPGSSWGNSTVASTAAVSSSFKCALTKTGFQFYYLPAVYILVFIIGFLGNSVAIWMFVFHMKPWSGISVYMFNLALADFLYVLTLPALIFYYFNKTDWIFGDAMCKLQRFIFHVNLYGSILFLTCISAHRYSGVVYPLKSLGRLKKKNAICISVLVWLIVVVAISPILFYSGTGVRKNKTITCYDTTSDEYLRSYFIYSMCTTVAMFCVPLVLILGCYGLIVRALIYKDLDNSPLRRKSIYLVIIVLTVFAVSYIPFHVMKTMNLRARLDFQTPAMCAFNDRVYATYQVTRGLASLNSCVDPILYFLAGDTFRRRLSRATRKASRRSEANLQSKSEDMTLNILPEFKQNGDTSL

Legend:
[1] = system: Gαq protein in HEK293T cells (pcDNA3.1); test: Gαq protein activation BRET2 assay in control HEK293T cells without receptor (pcDNA3.1 / 0 μg); conditions: MRS2179 10 μM, 1 min, 0 µg receptor-encoding plasmid
Human P2Y1-R = Human P2Y1-R (Homo sapiens, UniProt P47900); test: Gαq protein activation BRET2 assay (Gαq-RLuc8/GFP2-Gγ2/Gβ1) in HEK293T cells expressing P2Y1-R; type: cell-based; set-up: unit not given here; conditions: 1 min

CNc1ncnc2c1ncn2[C@H]1C[C@H](OP(=O)(O)O)[C@@H](COP(=O)(O)O)O1 [MRS2179]
MRS2179-modulated BRET [1]: 0.02671, 0.02912, -0.002311, 0.03124, 0.06069, 0.02735
MRS2179-modulated BRET (Human P2Y1-R; MRS2179 10 μM, 0.001 µg P2Y1-R plasmid): 0.02407, -0.01052, -0.0362, 0.04076, 0.02492, 0.02772, 0.04778
MRS2179-modulated BRET (Human P2Y1-R; MRS2179 10 μM, 0.1 µg P2Y1-R plasmid): 0.03908, 0.03078, 0.07322, 0.004927, 0.02817, 0.0815, 0.152
MRS2179-modulated BRET (Human P2Y1-R; MRS2179 10 μM, 1 µg P2Y1-R plasmid): 0.1498, 0.08739, 0.1024, 0.08426, 0.2275, 0.3378
MRS2179-modulated BRET (Human P2Y1-R; MRS2179 10 μM, 4 µg P2Y1-R plasmid): 0.0811, 0.06722, 0.06675, 0.05235, 0.1593, 0.2256
MRS2179-modulated BRET (Human P2Y1-R; [MRS2179] 1.00E-05 M): 0.03597, 0.07442, 0.06488, 0.0387, 0.02478
MRS2179-modulated BRET (Human P2Y1-R; [MRS2179] 1.00E-06 M): -0.03733, 0.01557, 0.01473, 0.004022, -0.0107
MRS2179-modulated BRET (Human P2Y1-R; [MRS2179] 1.00E-07 M): -0.03464, 0.03108, 0.01306, -0.001486, -0.00562
MRS2179-modulated BRET (Human P2Y1-R; [MRS2179] 1.00E-08 M): -0.04585, -0.02666, 0.02532, -0.02408, -0.009435
MRS2179-modulated BRET (Human P2Y1-R; [MRS2179] 1.00E-09 M): -0.02882, -0.03007, -0.01779, -0.02111, 0.00341
MRS2179-modulated BRET (Human P2Y1-R; [MRS2179] 1.00E-10 M): -0.04142, -0.05181, 0.008003, -0.005473, -0.006573
MRS2179-modulated BRET (Human P2Y1-R; [MRS2179] 5.00E-06 M): 0.02126, 0.0223, 0.04876, 0.0381, 0.0265
